According to the supplement of paper PMC6445147:
Single values of this data set are uncertain.

B1: human tRNA-Pro; a variant is named by its letters at N, in order (parent)
chain: GGCTCGTTGGTCTAGNGGTATGATTCTCGCTTAGGGTGCGAGAGGTCCCGGGTTCNNATCCCGGACGAGCCC

Assays:
[1] = variants of: B1; test: tRNA Pol-III promoter activity, log2 (circRNA frequency / plasmid DNA frequency) (log2 ratio); higher = stronger promoter activity; details: HEK293T; construct: no Pol-II promoter ((-)CMV library)
[2] = variants of: B1; test: tRNA 3' processing efficiency (processed reads / all reads, maximum-likelihood estimate) (fraction); higher = more efficient 3' processing; details: HEK293T; construct: no Pol-II promoter ((-)CMV library)
[3] = variants of: B1; test: tRNA 5' processing efficiency (processed reads / all reads, maximum-likelihood estimate) (fraction); higher = more efficient 5' processing; details: HEK293T; construct: CMV Pol-II promoter ((+)CMV library, decapped)

Row | Variant | tRNA Pol-III promoter activity (log2) [1] | tRNA 3' processing efficiency [2] | tRNA 5' processing efficiency [3]
1 | GTA T19A A20C A58T | 3.36 | 0.33 | –
2 | GAA G9T A58T T59G | 3.12 | 0.13 | –
3 | GAA A14T A20C A58G T59G | 7.26 | 0.3 | –
4 | GAA G18T T19G A20C | 3.3 | 0.33 | –
5 | TAA A58G | 0.293 | 0.27 | –
6 | GAA T8A G18T | 0.287 | 0.14 | –
7 | GGA T8C G9A | 2.02 | 0.25 | –
8 | GAA A14T A58T | 0.793 | 0.37 | 0.33
9 | GCG | 1.29 | 0.15 | 0.09
10 | TAC G15C | 2.9 | 0.4 | –
11 | TTT A20C | 8.28 | 0.34 | –
12 | CAA A14T A58G | 3.94 | 0.29 | –
13 | GAA T8A T54A | 1.36 | 0.13 | –
14 | ACA A14G T53G | 5.77 | 0.05 | –
15 | ACC | 4.86 | 0.26 | –
16 | GAC T19A A20C | 5.15 | 0.62 | –
17 | GTA A14G | 0.811 | 0.54 | 0.33
18 | GTA G17A A20T A58C | 5.84 | 0.29 | –
19 | TAC T53A | 3.94 | 0.67 | –

Row | Variant | tRNA Pol-III promoter activity (log2) [1] | tRNA 3' processing efficiency [2] | tRNA 5' processing efficiency [3]
20 | GAA A14T T19G A58G | 3.33 | 0.22 | –
21 | GTA T19C A58T | 4.62 | 0.31 | –
22 | AAG T19C A58C | 5.51 | 0.5 | –
23 | GAA A20T C55G T59C | 4.26 | 0.57 | –
24 | TAA A14G A20G T54G A58T | 3.53 | 0.33 | –
25 | GAG T8G A58C | 6.25 | 0.8 | –
26 | GAG T53A T59A | 5.91 | 0.55 | –
27 | GAA A14C G18A C55G | 5.93 | 0.67 | –
28 | GAC G9T T59C | 5.15 | 0.14 | –
29 | GAA T19G C62T | 6.74 | 0.43 | –
30 | GAA G9T T59A | 0.779 | 0.18 | –
31 | GTA T54A | -0.357 | 0.45 | –
32 | GTA G18A A20C | 4.71 | 0.75 | 0.25
33 | GAA G9T G15T A58C | 3.67 | 0.4 | –
34 | GAC A14T T19G | 5.93 | 0.25 | –
35 | AAA T19G T53A | 4.03 | 0.25 | –
36 | AGA A58T | 1.57 | 0.25 | –
37 | GAA T8C A58G | 0.56 | 0.13 | –
38 | CAA A58C T59G | 4.51 | 0.5 | –

Numbers 30 through 31, reprinted for reference:
Row | Variant | tRNA Pol-III promoter activity (log2) [1] | tRNA 3' processing efficiency [2] | tRNA 5' processing efficiency [3]
30 | GAA G9T T59A | 0.779 | 0.18 | –
31 | GTA T54A | -0.357 | 0.45 | –

Further entries follow.

Row | Variant | tRNA Pol-III promoter activity (log2) [1] | tRNA 3' processing efficiency [2] | tRNA 5' processing efficiency [3]
39 | CGG C55T | 5.36 | 0.13 | –
40 | GGG A14T A58G | 6.26 | 0.2 | –
41 | GTT G9A T59G | 4.67 | 0.2 | –
42 | GAA T8C A14G | 2 | 0.39 | 0.5
43 | GGA T8G C55T | 3.47 | 0.62 | –
44 | GTA T8C G15C | 2.12 | 0.25 | –
45 | CAG | 2.32 | 0.36 | 0.14
46 | GAG G9A T19A | 1.84 | 0.25 | –
47 | GAA G15C A58T | 0.1 | 0.4 | –
48 | GAA A14C G15C A20T | 5.53 | 0.67 | –
49 | GAT T19G | 1.52 | 0.26 | –
50 | GTA A14G T19G | 3.25 | 0.1 | –
51 | ACA C55G | 4.62 | 0.33 | –
52 | GAG G15C T59C | 6.08 | 0.25 | –
53 | GAA A14G G18T C55G | 2.8 | 0.2 | –
54 | TAG T59G | 2.93 | 0.17 | –
55 | GAA T19A T53A A58G | 4.03 | 0.4 | –
56 | TAA G9A A20C T53G | 5.73 | 0.85 | –
